The record followed here is PMC8009405, “POT1 stability and binding measured by fluorescence thermal shift assays”.

Construct, isoform or probe ends are uncertain for at least one entry. Negatives hold for the conditions tested. Where a protein sequence is shown, tags need not be part of it.

This data set has as its target T1, POT1 (POT1-N) (UniProt Q9NUX5).
T1 sequence (looked up, limits assumed): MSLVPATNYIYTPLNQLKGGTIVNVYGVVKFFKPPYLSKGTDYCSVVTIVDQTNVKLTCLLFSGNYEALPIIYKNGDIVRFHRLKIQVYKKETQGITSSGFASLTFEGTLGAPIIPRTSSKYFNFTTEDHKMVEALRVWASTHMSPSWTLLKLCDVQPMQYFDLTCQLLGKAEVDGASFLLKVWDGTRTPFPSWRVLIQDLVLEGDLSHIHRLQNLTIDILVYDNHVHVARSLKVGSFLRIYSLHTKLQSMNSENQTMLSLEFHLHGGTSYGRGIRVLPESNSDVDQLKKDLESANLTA
Briefly: FTSA (SYPRO Orange). As to conditions: 5 uM POT1, 50 uM DNA, little or no Tm change; 20 mM potassium phosphate, 180 mM KCl, pH 7.2; FTSA 20-99 °C, typically 5 uM POT1 and 50 uM DNA; recombinant protein; protein details: C-terminal 6xHis; folded or branched DNA.

In the case of “TGAGGGTGGGTAGGGTGGGTAA [1XAV (modified c-myc promoter G4)]”, the binding result was “no binding”.
